Results: paper PMC10444883
These are yes or no findings as the source states them, for the method shown. In cells and extracts the contact can be indirect. Some binding calls cover weakened binding; strength is not graded here. Blank lines part the entries; values can stand above or below the molecule they belong to.

By UniProt entry, the sequences of proteins in these tests, tags left out.
UniProt P63024: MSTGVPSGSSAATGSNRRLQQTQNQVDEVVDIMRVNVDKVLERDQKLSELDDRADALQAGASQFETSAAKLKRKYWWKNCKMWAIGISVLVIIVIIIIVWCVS

How the values were obtained:
[1] = target: T1, Synaptophysin-like protein 1 (SYPL1) (mouse (endogenous in testis)) (UniProt O09117); experiment: co-IP; WT mouse testes lysed in 1% NP40 buffer with protease inhibitor and 1 mM PMSF; precleared lysate incubated with anti-SYPL1 rabbit monoclonal or anti-VAMP3 rabbit polyclonal antibody overnight at 4 °C; protein-A-agarose beads; Western blot
T1 sequence: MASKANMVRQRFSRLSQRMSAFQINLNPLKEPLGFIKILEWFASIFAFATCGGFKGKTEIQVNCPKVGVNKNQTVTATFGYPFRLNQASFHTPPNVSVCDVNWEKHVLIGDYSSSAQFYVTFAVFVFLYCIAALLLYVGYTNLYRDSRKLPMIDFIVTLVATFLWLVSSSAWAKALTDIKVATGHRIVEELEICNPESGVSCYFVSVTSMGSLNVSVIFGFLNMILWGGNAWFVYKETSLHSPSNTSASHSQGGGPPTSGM

[2] = target: vesicle associated membrane protein 3 (VAMP3) (mouse (endogenous in testis)) (UniProt P63024); experiment: as above

binding [1]: binds
Molecule: vesicle associated membrane protein 3 (VAMP3) (from UniProt P63024 1-103)

binding [2]: binds
B1: Synaptophysin-like protein 1 (SYPL1) (protein, UniProt O09117 1-261)
chain: T1 sequence
